At least one compound was matched to its structure with a doubt left.
Experiment: Absorbance spectrum 350 nm to 700 nm
Assay type: physicochemical
Settings: range 350 nm to 700 nm

SMILES: C=CC1=C(C)c2cc3[nH]c(cc4nc(cc5[nH]c(cc1n2)c(C)c5CCC(=O)O)C(CCC(=O)O)=C4C)c(C)c3C=C [protoporphyrin IX]
- highest absorption maximum: 405 nm
- much smaller absorption maximum: 635 nm

— patent US12544443B2, “Photodynamic therapy comprising two light exposures at different wavelengths” (BIOFRONTERA BIOSCIENCE GMBH, priority 2018, dated 2026)
